According to the supplement of paper PMC10849652:
The list shows a part of the results.

Sequences of proteins named here, by UniProt entry; tags and fusion partners are left off. A change or cut given only in a name is not applied to a line headed by its entry.
UniProt Q9UPY5: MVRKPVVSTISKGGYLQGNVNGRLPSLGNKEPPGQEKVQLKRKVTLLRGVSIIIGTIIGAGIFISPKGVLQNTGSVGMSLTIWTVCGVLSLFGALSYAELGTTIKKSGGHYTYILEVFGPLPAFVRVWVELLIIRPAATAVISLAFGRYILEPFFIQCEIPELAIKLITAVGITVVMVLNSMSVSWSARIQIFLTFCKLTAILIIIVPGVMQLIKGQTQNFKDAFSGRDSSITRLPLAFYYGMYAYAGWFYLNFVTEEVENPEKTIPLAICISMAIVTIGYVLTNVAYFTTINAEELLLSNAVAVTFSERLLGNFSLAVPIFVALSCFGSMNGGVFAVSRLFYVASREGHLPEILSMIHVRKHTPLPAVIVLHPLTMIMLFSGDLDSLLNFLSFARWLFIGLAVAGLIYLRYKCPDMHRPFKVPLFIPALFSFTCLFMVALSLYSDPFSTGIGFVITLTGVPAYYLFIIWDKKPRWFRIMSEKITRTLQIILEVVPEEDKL
UniProt Q08357: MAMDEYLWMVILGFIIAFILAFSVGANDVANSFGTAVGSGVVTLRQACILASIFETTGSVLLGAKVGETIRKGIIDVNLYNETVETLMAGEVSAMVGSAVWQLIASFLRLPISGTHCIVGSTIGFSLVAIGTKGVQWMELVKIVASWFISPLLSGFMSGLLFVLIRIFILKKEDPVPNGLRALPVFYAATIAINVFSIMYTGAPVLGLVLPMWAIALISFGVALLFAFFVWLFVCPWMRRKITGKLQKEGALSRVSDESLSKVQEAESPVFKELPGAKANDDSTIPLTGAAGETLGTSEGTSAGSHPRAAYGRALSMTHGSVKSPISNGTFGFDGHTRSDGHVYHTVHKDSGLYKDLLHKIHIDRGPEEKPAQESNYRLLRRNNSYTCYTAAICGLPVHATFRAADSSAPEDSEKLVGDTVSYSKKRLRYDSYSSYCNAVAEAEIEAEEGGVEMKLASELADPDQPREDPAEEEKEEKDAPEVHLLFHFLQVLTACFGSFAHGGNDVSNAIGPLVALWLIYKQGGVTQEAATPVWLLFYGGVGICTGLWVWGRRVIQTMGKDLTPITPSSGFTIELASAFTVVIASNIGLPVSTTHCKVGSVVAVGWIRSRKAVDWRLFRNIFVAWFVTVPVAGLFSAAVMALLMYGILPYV
UniProt O43808: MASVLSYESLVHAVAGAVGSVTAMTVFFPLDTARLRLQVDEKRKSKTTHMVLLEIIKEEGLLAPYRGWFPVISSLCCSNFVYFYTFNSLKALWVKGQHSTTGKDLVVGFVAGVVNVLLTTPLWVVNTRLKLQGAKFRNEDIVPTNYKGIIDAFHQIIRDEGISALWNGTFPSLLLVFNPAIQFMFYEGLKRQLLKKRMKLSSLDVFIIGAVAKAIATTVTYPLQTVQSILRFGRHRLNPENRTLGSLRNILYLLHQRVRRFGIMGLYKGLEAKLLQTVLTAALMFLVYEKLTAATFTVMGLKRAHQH
UniProt Q8NBI5: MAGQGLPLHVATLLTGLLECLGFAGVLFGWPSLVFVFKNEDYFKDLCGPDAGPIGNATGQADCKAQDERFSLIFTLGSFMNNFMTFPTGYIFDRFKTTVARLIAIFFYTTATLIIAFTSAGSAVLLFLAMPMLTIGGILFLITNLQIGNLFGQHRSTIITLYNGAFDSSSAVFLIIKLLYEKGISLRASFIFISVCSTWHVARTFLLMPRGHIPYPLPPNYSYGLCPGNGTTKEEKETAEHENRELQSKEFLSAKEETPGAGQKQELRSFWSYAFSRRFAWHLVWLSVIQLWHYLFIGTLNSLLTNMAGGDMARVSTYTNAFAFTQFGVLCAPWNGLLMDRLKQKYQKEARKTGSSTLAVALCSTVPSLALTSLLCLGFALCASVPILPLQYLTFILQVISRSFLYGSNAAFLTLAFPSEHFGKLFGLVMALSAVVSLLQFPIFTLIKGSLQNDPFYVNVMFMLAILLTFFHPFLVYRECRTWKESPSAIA
UniProt Q9NP59: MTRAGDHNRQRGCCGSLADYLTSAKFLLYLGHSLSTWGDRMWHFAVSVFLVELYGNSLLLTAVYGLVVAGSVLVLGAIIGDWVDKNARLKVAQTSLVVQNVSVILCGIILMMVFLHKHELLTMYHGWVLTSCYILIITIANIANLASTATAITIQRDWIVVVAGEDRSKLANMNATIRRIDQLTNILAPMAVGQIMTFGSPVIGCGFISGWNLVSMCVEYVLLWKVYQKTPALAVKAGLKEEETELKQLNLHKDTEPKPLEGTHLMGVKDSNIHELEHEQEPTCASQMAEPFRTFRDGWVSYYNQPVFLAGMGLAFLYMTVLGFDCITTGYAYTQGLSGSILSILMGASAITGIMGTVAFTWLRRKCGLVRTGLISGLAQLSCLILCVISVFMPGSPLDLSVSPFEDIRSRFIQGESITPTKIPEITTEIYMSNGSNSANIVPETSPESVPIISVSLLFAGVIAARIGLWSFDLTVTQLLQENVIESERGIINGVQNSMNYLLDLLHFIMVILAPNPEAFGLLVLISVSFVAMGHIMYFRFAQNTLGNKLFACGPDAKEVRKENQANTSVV
UniProt P30825: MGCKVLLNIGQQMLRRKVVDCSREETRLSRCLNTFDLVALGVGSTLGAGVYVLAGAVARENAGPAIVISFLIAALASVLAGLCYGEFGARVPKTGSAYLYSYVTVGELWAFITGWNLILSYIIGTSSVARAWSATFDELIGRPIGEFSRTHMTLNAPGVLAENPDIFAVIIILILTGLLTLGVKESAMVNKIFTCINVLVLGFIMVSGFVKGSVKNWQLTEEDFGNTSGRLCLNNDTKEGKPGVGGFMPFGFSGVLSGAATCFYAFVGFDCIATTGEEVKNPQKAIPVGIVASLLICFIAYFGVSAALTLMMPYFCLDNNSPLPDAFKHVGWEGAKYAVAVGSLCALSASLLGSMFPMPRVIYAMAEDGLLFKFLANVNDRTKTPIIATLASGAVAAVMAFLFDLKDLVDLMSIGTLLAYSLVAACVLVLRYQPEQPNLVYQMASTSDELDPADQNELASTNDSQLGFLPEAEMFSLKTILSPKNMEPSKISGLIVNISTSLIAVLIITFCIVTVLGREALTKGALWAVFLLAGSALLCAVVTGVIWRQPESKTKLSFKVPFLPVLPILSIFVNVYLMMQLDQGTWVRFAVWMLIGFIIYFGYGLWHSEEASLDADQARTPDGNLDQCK
UniProt Q9HBR0: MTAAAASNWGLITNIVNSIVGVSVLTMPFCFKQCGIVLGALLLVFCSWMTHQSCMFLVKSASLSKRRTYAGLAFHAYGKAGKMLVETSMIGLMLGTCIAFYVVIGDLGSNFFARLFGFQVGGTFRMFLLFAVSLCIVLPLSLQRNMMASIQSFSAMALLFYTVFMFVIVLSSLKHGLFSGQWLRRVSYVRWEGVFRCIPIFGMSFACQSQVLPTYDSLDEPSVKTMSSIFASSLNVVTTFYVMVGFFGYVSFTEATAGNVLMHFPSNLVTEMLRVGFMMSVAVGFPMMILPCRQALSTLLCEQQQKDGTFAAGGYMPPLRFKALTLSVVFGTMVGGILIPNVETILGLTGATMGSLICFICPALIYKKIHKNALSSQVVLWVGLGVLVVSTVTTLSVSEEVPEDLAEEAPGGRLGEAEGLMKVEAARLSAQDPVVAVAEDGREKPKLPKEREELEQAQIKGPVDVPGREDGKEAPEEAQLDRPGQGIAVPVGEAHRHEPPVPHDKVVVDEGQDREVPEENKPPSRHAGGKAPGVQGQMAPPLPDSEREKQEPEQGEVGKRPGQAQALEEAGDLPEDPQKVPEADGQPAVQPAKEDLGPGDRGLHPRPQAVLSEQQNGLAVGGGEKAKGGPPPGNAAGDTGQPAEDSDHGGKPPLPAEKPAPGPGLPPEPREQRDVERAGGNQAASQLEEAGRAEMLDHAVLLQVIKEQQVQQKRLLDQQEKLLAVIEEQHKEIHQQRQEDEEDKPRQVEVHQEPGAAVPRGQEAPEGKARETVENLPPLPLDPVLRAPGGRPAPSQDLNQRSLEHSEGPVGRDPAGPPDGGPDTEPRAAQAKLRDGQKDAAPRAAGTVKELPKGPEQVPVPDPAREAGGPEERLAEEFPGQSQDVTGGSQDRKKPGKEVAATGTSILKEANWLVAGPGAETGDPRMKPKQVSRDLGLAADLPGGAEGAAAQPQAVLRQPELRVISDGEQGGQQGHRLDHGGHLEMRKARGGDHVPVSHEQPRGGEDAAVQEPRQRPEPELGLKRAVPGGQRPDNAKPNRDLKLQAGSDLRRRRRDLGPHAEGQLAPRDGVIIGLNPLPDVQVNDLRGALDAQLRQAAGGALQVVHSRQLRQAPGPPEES
UniProt Q9BWU0: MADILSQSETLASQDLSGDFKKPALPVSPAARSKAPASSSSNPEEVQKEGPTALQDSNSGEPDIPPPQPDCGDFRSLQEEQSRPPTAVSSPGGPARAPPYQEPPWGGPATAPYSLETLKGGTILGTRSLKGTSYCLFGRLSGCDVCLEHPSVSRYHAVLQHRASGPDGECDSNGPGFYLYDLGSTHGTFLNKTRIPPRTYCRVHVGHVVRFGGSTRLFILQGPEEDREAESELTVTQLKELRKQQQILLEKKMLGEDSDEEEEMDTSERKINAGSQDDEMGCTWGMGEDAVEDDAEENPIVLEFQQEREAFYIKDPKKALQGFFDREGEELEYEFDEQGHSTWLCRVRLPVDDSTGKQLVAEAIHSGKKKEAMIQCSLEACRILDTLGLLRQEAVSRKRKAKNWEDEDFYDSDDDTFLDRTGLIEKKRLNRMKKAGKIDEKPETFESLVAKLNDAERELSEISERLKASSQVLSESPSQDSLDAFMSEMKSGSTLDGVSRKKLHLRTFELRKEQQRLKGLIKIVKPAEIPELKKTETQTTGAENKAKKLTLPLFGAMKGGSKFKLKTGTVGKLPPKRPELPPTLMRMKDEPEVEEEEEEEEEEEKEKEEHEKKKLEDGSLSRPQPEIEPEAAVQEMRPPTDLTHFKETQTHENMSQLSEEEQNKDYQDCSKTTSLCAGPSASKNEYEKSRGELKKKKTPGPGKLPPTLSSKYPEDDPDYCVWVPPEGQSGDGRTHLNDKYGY

Legend:
Test in all cases: log2 fold change, soluble protein after heating vs DMSO (PISA); higher = thermal stabilisation; K562 cells, 10 uM, 30 min; active = over 0.2 and 3.5 SD of the protein, either way, in both replicates (recomputed)
[1] = compound: CC[C@@H]1C(=O)N(C)c2cnc(Nc3ccc(C(=O)NC4CCN(C)CC4)cc3OC)nc2N1C1CCCC1
Outline: (§1)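 Quantification of soluble protein used TMTpro 16plex LC-MS/MS, with channel sums equalised. Samples were the supernatant after 21,000xg for 90 min of pooled aliquots from K562 cells (2×10^6 cells/mL) treated with 10 μM compound for 30 min, heated for 3 min over 48°C-58°C, and extracted in PBS with 0.5% NP-40 at 4°C. Values, from duplicates, describe thermal stability against control samples on a log2 fold-change scale.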

volasertib = compound: CC[C@@H]1C(=O)N(C)c2cnc(Nc3ccc(C(=O)N[C@H]4CC[C@H](N5CCN(CC6CC6)CC5)CC4)cc3OC)nc2N1C(C)C [volasertib]
Outline: as §1

[2] = compound: CC[C@H](C)N1C=C(C2=C(C=C(C=C21)C3=CN=C(C=C3)N4CCNCC4)C(=O)NCC5=C(C=C(NC5=O)C)C)C
Outline: as §1

epoxomicin = compound: CC[C@H](C)[C@@H](C(=O)N[C@@H]([C@@H](C)O)C(=O)N[C@@H](CC(C)C)C(=O)[C@]1(CO1)C)NC(=O)[C@H]([C@@H](C)CC)N(C)C(=O)C [epoxomicin]
Outline: as §1

[3] = compound: CCn1c(C(=O)N(C2CC2)C2CC2)cc2c3c(ncn3C)c(Nc3cc(C)n(C)n3)nc21
Outline: as §1

[4] = compound: CCn1cc(-c2ccnc3[nH]c(-c4cccc(CN(C)C)c4)cc23)c(-c2ccc(NC(=O)N(C)C)cc2)n1
Outline: as §1

[5] = compound: CN(C)CC(=O)Nc1ccc2[nH]c(=O)c3ccccc3c2c1
Outline: as §1

rosiglitazone = compound: CN(CCOC1=CC=C(C=C1)C[C@H]2C(=O)NC(=O)S2)C3=CC=CC=N3 (racemic) [rosiglitazone]
Outline: as §1

[6] = compound: CN1C2=C(C3=C1C(=O)N(N=C3)CC4=CC(=CC=C4)N)SC(=C2)S(=O)C
Outline: as §1

[7] = compound: CN1CCC(CNc2ccc3ncc(-c4cccc(OC(F)(F)F)c4)n3n2)CC1
Outline: as §1

saracatinib = compound: CN1CCN(CCOc2cc(OC3CCOCC3)c3c(Nc4c(Cl)ccc5c4OCO5)ncnc3c2)CC1 [saracatinib]
Outline: as §1

sotrastaurin = compound: CN1CCN(c2nc(C3=C(c4c[nH]c5ccccc45)C(=O)NC3=O)c3ccccc3n2)CC1 [sotrastaurin]
Outline: as §1

alvocidib = compound: CN1CC[C@H](c2c(O)cc(O)c3c(=O)cc(-c4ccccc4Cl)oc23)[C@H](O)C1 [alvocidib]
Outline: as §1

Tubastatin A = compound: CN1CCc2c(c3ccccc3n2Cc2ccc(C(=O)NO)cc2)C1 [Tubastatin A]
Outline: as §1

[8] = compound: CNC(=O)C1=CC=CC=C1NC2=NC(=NC=C2Cl)NC3=C(C=C(C=C3)N4CCOCC4)OC
Outline: as §1

defactinib = compound: CNC(=O)c1ccc(Nc2ncc(C(F)(F)F)c(NCc3nccnc3N(C)S(C)(=O)=O)n2)cc1 [defactinib]
Outline: as §1

rucaparib = compound: CNCc1ccc(-c2[nH]c3cc(F)cc4c3c2CCNC4=O)cc1 [rucaparib]
Outline: as §1

[9] = compound: CNc1nc(-c2ccc3c(N)n[nH]c3c2)cc(N2C[C@@H](C(=O)NC3CCCCC3)CC[C@H]2C)n1
Outline: as §1

encorafenib = compound: COC(=O)N[C@@H](C)CNc1nccc(-c2cn(C(C)C)nc2-c2cc(Cl)cc(NS(C)(=O)=O)c2F)n1 [encorafenib]
Outline: as §1

[10] = compound: COC(=O)[C@H](CCSC)NC(=O)C1=C(C=C(C=C1)NC[C@H](CS)N)C2=CC=CC=C2
Outline: as §1

Measured: log2 fold change

SLC7A11 (UniProt Q9UPY5)
inactive: [1] -0.052 | volasertib -0.005 | [2] 0 | epoxomicin -0.039 | [3] 0 | [4] -0.033 | [5] 0.009 | rosiglitazone -0.05 | [6] -0.026 | [7] 0.082 | saracatinib 0.005 | sotrastaurin 0.039 | alvocidib -0.022 | Tubastatin A 0.023 | [8] -0.042 | defactinib -0.047 | rucaparib -0.008 | [9] -0.011 | encorafenib -0.018 | [10] 0.031

SLC20A2 (UniProt Q08357)
inactive: [1] 0.105 | volasertib 0.035 | [2] 0.013 | epoxomicin -0.046 | [3] 0.013 | [4] -0.048 | [5] 0.016 | rosiglitazone -0.015 | [6] -0.063 | [7] -0.07 | saracatinib 0.01 | sotrastaurin 0.08 | alvocidib -0.019 | Tubastatin A -0.095 | [8] 0.059 | defactinib -0.099 | rucaparib -0.037 | [9] -0.051 | encorafenib 0.008 | [10] -0.033

SLC25A17 (UniProt O43808)
inactive: [1] 0.046 | volasertib -0.118 | [2] -0.039 | epoxomicin -0.075 | [3] 0.011 | [4] -0.024 | [5] -0.039 | rosiglitazone 0.017 | [6] -0.024 | [7] 0.18 | saracatinib 0.165 | sotrastaurin -0.025 | alvocidib -0.004 | Tubastatin A 0.025 | [8] 0.001 | defactinib 0 | rucaparib -0.022 | [9] 0.02 | encorafenib 0.004 | [10] 0.042

SLC43A3 isoform 2 (UniProt Q8NBI5)
inactive: [1] 0.048 | volasertib 0.089 | [2] -0.056 | epoxomicin -0.02 | [3] 0.064 | [4] -0.008 | [5] -0.027 | rosiglitazone -0.054 | [6] -0.05 | [7] 0.145 | saracatinib 0.02 | sotrastaurin 0.033 | alvocidib -0.012 | Tubastatin A 0.052 | [8] -0.047 | defactinib 0.056 | rucaparib -0.107 | [9] -0.011 | encorafenib 0.052 | [10] 0.044

SLC40A1 (UniProt Q9NP59)
inactive: [1] 0.18 | volasertib 0.072 | [2] 0.098 | epoxomicin -0.057 | [3] -0.091 | [4] -0.073 | [5] 0.076 | rosiglitazone 0.097 | [6] -0.061 | [7] 0.148 | saracatinib 0.042 | sotrastaurin 0.036 | alvocidib 0.067 | Tubastatin A -0.038 | [8] -0.001 | defactinib -0.05 | rucaparib 0.005 | [9] -0.037 | encorafenib 0.046 | [10] 0.201

SLC7A1 (UniProt P30825)
inactive: [1] 0.048 | volasertib -0.059 | [2] -0.068 | epoxomicin -0.001 | [3] 0.011 | [4] 0.046 | [5] 0.001 | rosiglitazone -0.01 | [6] -0.042 | [7] 0.031 | saracatinib 0.031 | sotrastaurin 0.059 | alvocidib 0.009 | Tubastatin A -0.033 | [8] -0.009 | defactinib -0.089 | rucaparib -0.014 | [9] -0.048 | encorafenib -0.006 | [10] 0.056

SLC38A10 (UniProt Q9HBR0)
inactive: [1] 0.022 | volasertib -0.039 | [2] -0.052 | epoxomicin 0.037 | [3] 0.003 | [4] -0.021 | [5] -0.029 | rosiglitazone 0.028 | [6] -0.001 | [7] 0.144 | saracatinib 0.067 | sotrastaurin -0.096 | alvocidib -0.039 | Tubastatin A 0.018 | [8] 0.019 | defactinib 0.031 | rucaparib -0.007 | [9] -0.096 | encorafenib -0.04 | [10] 0.078

SLC4A1AP (UniProt Q9BWU0)
inactive: [1] -0.048 | volasertib -0.117 | [2] 0.04 | epoxomicin 0.056 | [3] -0.05 | [4] 0.023 | [5] 0.023 | rosiglitazone 0.028 | [6] -0.001 | [7] -0.024 | saracatinib -0.015 | sotrastaurin -0.025 | alvocidib -0.067 | Tubastatin A 0.027 | [8] 0.042 | defactinib -0.089 | rucaparib -0.019 | [9] -0.022 | encorafenib 0.054 | [10] 0
